Results: PMC8572007

Molecular target: Taxol-induced microtubules (MTs) (Drosophila (endogenous in wild-type larval brains and body walls))
Experiment: co-sedimentation; MT cosedimentation from homogenates of 50 wild-type larval brains or 25 larval body walls in BRB80 (80 mM PIPES pH 7.8, 1 mM EGTA, 1 mM MgCl2, 0.1% NP-40); clarified at 100,000 g, 4°C; 1 mM GTP and DTT, then 20 µM Taxol at 30°C for 30 min; spun through a 10% sucrose cushion at 180,000 g, 25-30°C; pellet analysed by western blot

binding: binds
B1: Rae1 (protein, UniProt Q9W2E7 1-346)
chain: MFGATQSTNRMNDFEVASPPDDSVSALEFSPSTVQKNFLVAGSWDSTVRCWEVEQNGATVPKSMKTMGGPVLDVCWSDDGSKVFVASCDKQVKLWDLASDQVMQVAAHDGPVKTCHMVKGPTYTCLMTGSWDKTLKFWDTRSPNPMMTINLPERCYCADVEYPMAVVGTANRGLIIYSLQNSPTEYKRQESPLKYQHRAISIFRDKKKEPTGCALGSIEGRVAIQYVNPGNPKDNFTFKCHRTTGTSGYQDIYAVNDIAFHPVHGTLVTVGSDGTFSFWDKDARTKLKSSETMDQSITKCGFNANGQIFAYAVGYDWSKGHEYFNPAKKPQIFLRSCYDELKPRIN

These are yes or no findings as the source states them, for the method shown. In cells and extracts the contact can be indirect. Binding can be weak; no strength is given.
